Source: PubChem BioAssay AID504834 (National Center for Advancing Translational Sciences (NCATS), 2011)
The whole screen tested about 320,000 compounds, of which about 22,000 (6.9%) were called active. The inconclusive results got no clear call from the source; some entries with a clear call stand among them for comparison. Calls come from the whole dose curve; as a rule, active = well fitted inhibition curve with a large enough effect; inconclusive = small, poorly fitted or top-dose-only effect, or another doubt; inactive = no such curve, though single readings can be large or run the other way. Potencies beside an inconclusive call are fits to weak or partial responses and may not hold up.

assay: Primary qHTS for delayed death inhibitors of the malarial parasite plastid, 96 hour incubation; settings: P. falciparum luciferase reporter growth; series mostly up to 28.7 µM; activity change, negative = inhibition: at the top concentration
Outline: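 P. falciparum expressing integrated firefly luciferase, in erythrocytes at 2% hematocrit, 0.05% parasitemia, incubated with compounds 96 h at 37 C, 5% CO2. Growth inhibition read as loss of luminescence; two-generation exposure targets delayed-death apicoplast inhibitors.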
% is set by controls: 0 for no effect and ±100 for the full control effect; potency is the fitted concentration of half-maximal effect.

Question: With Cc1cccc(OCc2nnc(SCC(=O)N(c3ccccc3)C3CCS(=O)(=O)C3)o2)c1 (stereo unspecified) as the compound, how does the Potency read?
Answer: inconclusive: 7.38 µM [inhibitor, partial curve, poor fit]

Question: With CC(=O)c1ccc(S(=O)(=O)N2CCC3(CC2)OCCO3)cc1 as the compound, how does the “activity change, negative = inhibition” value read?
Answer: inactive: -2.99%

Question: For COc1ccc(CCNC(=O)c2cnc(Cl)c(Cl)c2)cc1, which “activity change, negative = inhibition” value is on record?
Answer: inactive: 4.95%

Question: With Cc1cccc(NC(=O)c2ccc(COc3cccc4ccccc34)o2)n1 as the compound, how does the Potency read?
Answer: inconclusive: 18.5 µM [inhibitor, single point]

Question: For CCN1C(=O)[C@H]2[C@@H](c3ccc(C)cc3)N3C(=O)N(c4cccc(Br)c4)C(=O)[C@@]3(CC(C)C)[C@H]2C1=O, which Potency is on record?
Answer: active: 14.7 µM

Question: With CCOC(CCn1c(SCC(=O)Nc2cc(C)on2)nc2ccccc2c1=O)OCC as the compound, how does the “activity change, negative = inhibition” value read?
Answer: inactive: 15%

Question: With CCOC(=O)c1cc(=O)n2c(nc3ccccc32)[nH]1 as the compound, how does the “activity change, negative = inhibition” value read?
Answer: inactive: -11.4%

Question: With COC(C(=O)C(O)C(C)O)C1Cc2cc3cc(OC4CC(OC5CC(O)C(O)C(C)O5)C(O)C(C)O4)c(C)c(O)c3c(O)c2C(=O)C1OC1CC(OC2CC(OC3CC(C)(O)C(O)C(C)O3)C(O)C(C)O2)C(O)C(C)O1 (stereo unspecified) as the compound, how does the Potency read?
Answer: active: 1.9 µM

Question: With C[C@@]12CCC=C[C@H]1[C@H](c1ccc(C(F)(F)F)cc1)N(Cc1ccccc1)C2=O as the compound, how does the Potency read?
Answer: active: 10.4 µM

Question: For CC(C)CCNC(=O)C1(O)c2ccccc2NC(=O)N1c1ccc(Cl)cc1 (stereo unspecified), which “activity change, negative = inhibition” value is on record?
Answer: inactive: 55.2%

Question: For CCn1cc2nc(SCC(=O)Nc3ccc(F)cc3F)n(Cc3ccccc3)c(=O)c2n1, which Potency is on record?
Answer: active: 13.1 µM

Question: For C/C(=N\N1CCN(C2c3ccccc3-c3ccccc32)CC1)c1ccco1, which Potency is on record?
Answer: inconclusive: 11.7 µM [inhibitor, single point]

Question: Which “activity change, negative = inhibition” value does the source give for Cc1ccc2nc(N3CCN(C(=O)c4ccco4)CC3)sc2c1 here?
Answer: inactive: -9.37%

Question: With CN(C)c1ccc(C(CNC(=O)c2ccccc2)c2c[nH]c3ccccc23)cc1 (stereo unspecified) as the compound, how does the Potency read?
Answer: inconclusive: 13.1 µM [inhibitor, single point]

Question: With CCCCCN(C(=O)CCC(=O)OC(C)C(=O)NCc1ccccc1)c1c(N)n(CCCC)c(=O)[nH]c1=O (stereo unspecified) as the compound, how does the Potency read?
Answer: inconclusive: 18.5 µM [inhibitor, single point]

Question: Which “activity change, negative = inhibition” value does the source give for COc1ccc(CN2CCC(C(=O)N3CCN(c4ccccc4F)CC3)CC2)cc1OC here?
Answer: inactive: 19.2%

Question: Which Potency does the source give for Cn1ccc2cc(-c3csc(N4CCC(C(N)=O)CC4)n3)ccc21 here?
Answer: inconclusive: 18.5 µM [inhibitor, single point]

Question: Which Potency does the source give for COc1ccc(NC(=O)Cn2cccc2)cc1Cl here?
Answer: inconclusive: 0.0828 µM [inhibitor, full curve, poor fit]

Question: With CCCC(=O)N(Cc1cc(=O)[nH]c2ccccc12)c1ccc(C)cc1C as the compound, how does the Potency read?
Answer: inconclusive: 18.5 µM [inhibitor, single point]

Question: For CCOC(=O)c1cccc(C2=CC(=O)CC(C)(C)C2)c1, which Potency is on record?
Answer: inconclusive: 16.5 µM [inhibitor, single point]

Question: For CCCOc1ccc(N/C=C/C(=O)c2cc(OC)c(OC)c(OC)c2)cc1, which “activity change, negative = inhibition” value is on record?
Answer: inactive: -51%

Question: For O=C(Nc1c2c(nn1-c1ccc(F)cc1)CS(=O)(=O)C2)C1CCCC1, which Potency is on record?
Answer: active: 10.4 µM

Question: With CSc1nc2ccc3nc(NC(=O)c4cccs4)sc3c2s1 as the compound, how does the Potency read?
Answer: inconclusive: 1.04 µM [inhibitor, partial curve]

Question: Which Potency does the source give for CC1Sc2ccc(S(=O)(=O)CCC(=O)N3CCCC3)cc2NC1=O (stereo unspecified) here?
Answer: inconclusive: 5.22 µM [inhibitor, partial curve, poor fit]

Question: For Cc1ccc(NC(=O)N(Cc2nc3ccccc3c(=O)[nH]2)Cc2cccs2)cc1, which “activity change, negative = inhibition” value is on record?
Answer: inactive: -13.3%

Question: Which Potency does the source give for CN(C)C(=S)SSC(=S)N(C)C here?
Answer: active: 0.757 µM

Question: Which “activity change, negative = inhibition” value does the source give for CCOc1ncccc1C(=O)OCCCC(=O)c1ccc(Br)cc1 here?
Answer: inactive: -28.2%

Question: With CC1CN(c2c(F)c(N)c3c(=O)c(C(=O)O)cn(C4CC4)c3c2F)CC(C)N1 (stereo unspecified) as the compound, how does the Potency read?
Answer: active: 4.78 µM

Question: With O=C(NN1C(=O)C2C3C=CC(O3)C2C1=O)c1cccc(Br)c1 (stereo unspecified) as the compound, how does the “activity change, negative = inhibition” value read?
Answer: inactive: 17.1%

Question: Which Potency does the source give for CCc1ccc(C2=NNC(=Nc3cccc(S(=O)(=O)N(C)C)c3)SC2)cc1 here?
Answer: inconclusive: 11.7 µM [inhibitor, single point]

Question: For COC(=O)C1=C(c2ccc(OC)c(OC)c2)C[C@@H]2CC[C@H]1N2C(=O)NCCOc1ccccc1Cl, which Potency is on record?
Answer: inconclusive: 3.29 µM [inhibitor, partial curve]

Question: Which “activity change, negative = inhibition” value does the source give for CN(CCO)C1=NS(=O)(=O)c2cc([N+](=O)[O-])ccc21 here?
Answer: inactive: -27%

Question: Which Potency does the source give for Cn1cccc1Cc1nnc(SCC(=O)N2CCN(c3ccccc3)CC2)n1-c1ccc(F)cc1 here?
Answer: active: 1.47 µM

Question: With COc1ccc(-c2csc(NC(=S)NC(=O)c3ccc(S(=O)(=O)N(C)C)cc3)n2)cc1OC as the compound, how does the Potency read?
Answer: inconclusive: 1.04 µM [inhibitor, full curve]

Question: Which Potency does the source give for CCOc1ccc(CCNC(=O)C2CCN(S(=O)(=O)CC)CC2)cc1OCC here?
Answer: active: 2.62 µM

Question: For O=C(Nc1nnc(C2=COCCO2)o1)c1ccc(Cl)cc1, which Potency is on record?
Answer: inconclusive: 18.5 µM [inhibitor, single point]

Question: Which Potency does the source give for COc1ccc(-c2sc3ccc(OC)cc3c2C#CCCO)cc1 here?
Answer: inconclusive: 10.4 µM [inhibitor, partial curve, poor fit]

Question: Which Potency does the source give for O=C(O)CCCCCNc1ncnc2ccc(Br)cc12 here?
Answer: inconclusive: 13.1 µM [inhibitor, single point]

Question: Which Potency does the source give for C1CCC(C23CC4CC(CC(C4)C2)C3)NC1 (stereo unspecified) here?
Answer: inconclusive: 18.5 µM [inhibitor, single point]

Question: Which Potency does the source give for COc1ccc(C)cc1NC(=O)c1cc2cc3ccc(C)cc3nc2o1 here?
Answer: inconclusive: 4.65 µM [inhibitor, partial curve]

Question: For O=C(Nc1cccn2ncnc12)c1ccc(Cl)cc1, which “activity change, negative = inhibition” value is on record?
Answer: inactive: 3.04%

Question: For COc1ccc(OC)c(NC(=O)c2cccc(S(=O)(=O)N3CCN(C(C)=O)CC3)c2)c1, which Potency is on record?
Answer: inconclusive: 1.85 µM [inhibitor, partial curve]

Question: Which Potency does the source give for Cc1ccc2c(C)c(C(=O)N3CCN(Cc4ccccn4)CC3)oc2c1C here?
Answer: inconclusive: 10.4 µM [inhibitor, single point]

Question: Which “activity change, negative = inhibition” value does the source give for Cn1c(=S)oc2ccccc21 here?
Answer: inactive: 10.4%

Question: With CCOC(=O)c1c(-c2cccs2)csc1NC(=O)c1ccncc1 as the compound, how does the Potency read?
Answer: inconclusive: 0.415 µM [inhibitor, full curve, poor fit]

Question: Which Potency does the source give for CCCc1ccc(-c2ccc(-c3noc(-c4ccncc4)n3)cc2)nc1 here?
Answer: active: 10.4 µM
